Values from PubChem BioAssay AID1259424 (University of Nebraska Medical Center, 2018)
Assay: 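Rank knockdowns across the genome by resemblance to the KSR1 depletion profile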 (primary screen). Cell system: human HCT116 colon cancer cells. Reagents: siRNA pool against human genes, 50 nM. Detection: 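Log2 levels of six mRNAs (branched-DNA multiplex), adjusted by two reference genes and the non-targeting median, then scored against the average KSR1 knockdown pattern as Pearson r and euclidean distance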. Scale: mean correlation with KSR1 profile and KSR1 correlation: higher = expression change more like KSR1 knockdown; mean distance from KSR1 profile: higher = expression change less like KSR1 knockdown.
In all, the deposit lists about 14,000 reagents; this is a part drawn at random. 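Higher correlation or smaller distance means closer resemblance to KSR1 loss; control wells, including KSR1 knockdowns, recur on many plates.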 The record does not give: the time to read-out.

| target gene | mean correlation with KSR1 profile | mean distance from KSR1 profile | KSR1 correlation, replicate 1 | KSR1 correlation, replicate 2 | KSR1 correlation, replicate 3 |
| --- | --- | --- | --- | --- | --- |
| CCL26 | -0.12 | 3.56 | -0.0082 | -0.258 | -0.162 |
| EPS8L2 | 0.0575 | 3.85 | 0.109 | -0.071 | 0.0201 |
| DDX11 | 0.202 | 1.03 | 0.414 | 0.274 | -0.216 |
| ANKRD16 | -0.896 | 2.04 | -0.805 | -0.792 | -0.824 |
| SCOC | -0.47 | 2.08 | -0.561 | -0.305 | -0.63 |
| FUS | -0.539 | 1.55 | -0.401 | -0.894 | -0.896 |
| KRT18 | 0.0522 | 1.79 | -0.0817 | -0.41 | 0.0814 |
| MAPRE2 | 0.128 | 2.13 | -0.177 | 0.135 | 0.135 |
| SHPK | 0.245 | 1.53 | 0.644 | -0.31 | -0.491 |
| CTSW | 0.107 | 2.1 | -0.364 | 0.308 | 0.372 |
| GNRH2 | 0.145 | 1.2 | -0.161 | 0.0995 | 0.269 |
| DKK1 | -0.109 | 2.07 | -0.298 | -0.00115 | -0.112 |

In a second layout: results already given.
CCL26
- mean correlation with KSR1 profile: -0.12
- mean distance from KSR1 profile: 3.56
- KSR1 correlation, replicate 1: -0.0082
- KSR1 correlation, replicate 2: -0.258
- KSR1 correlation, replicate 3: -0.162

EPS8L2
- mean correlation with KSR1 profile: 0.0575
- mean distance from KSR1 profile: 3.85
- KSR1 correlation, replicate 1: 0.109
- KSR1 correlation, replicate 2: -0.071
- KSR1 correlation, replicate 3: 0.0201

DDX11
- mean correlation with KSR1 profile: 0.202
- mean distance from KSR1 profile: 1.03
- KSR1 correlation, replicate 1: 0.414
- KSR1 correlation, replicate 2: 0.274
- KSR1 correlation, replicate 3: -0.216

ANKRD16
- mean correlation with KSR1 profile: -0.896
- mean distance from KSR1 profile: 2.04
- KSR1 correlation, replicate 1: -0.805
- KSR1 correlation, replicate 2: -0.792
- KSR1 correlation, replicate 3: -0.824

More reagents follow.
| target gene | mean correlation with KSR1 profile | mean distance from KSR1 profile | KSR1 correlation, replicate 1 | KSR1 correlation, replicate 2 | KSR1 correlation, replicate 3 |
| --- | --- | --- | --- | --- | --- |
| OTP | 0.0733 | 2.62 | -0.036 | -0.0342 | 0.143 |
| RBBP4 | -0.351 | 2.34 | -0.704 | -0.664 | 0.272 |
| GLUD2 | -0.105 | 2.29 | -0.23 | -0.09 | -0.143 |
| YAP1 | 0.277 | 2.45 | 0.548 | -0.0612 | 0.33 |
| ALYREF | -0.566 | 1.86 | -0.628 | -0.611 | -0.377 |
| KDM6B | 0.131 | 2.55 | 0.208 | -0.00971 | 0.212 |
| SLC67A2 | 0.543 | 1.76 | 0.407 | 0.433 | 0.264 |
| CFAP410 | 0.28 | 2.65 | 0.41 | 0.225 | 0.0164 |
| DCXR | 0.0448 | 4.5 | -0.0448 | 0.179 | 0.239 |
| OLIG3 | -0.17 | 2.07 | -0.311 | -0.263 | -0.264 |
| NUDT12 | 0.479 | 1.94 | 0.401 | 0.368 | 0.377 |
| KCNH6 | -0.516 | 2.73 | -0.417 | -0.485 | -0.522 |
| PLA2G4C | -0.478 | 2.37 | -0.568 | -0.636 | -0.539 |
| NDUFA5 | 0.26 | 1.4 | 0.199 | 0.179 | 0.226 |
| DSG1 | 0.138 | 2.93 | 0.247 | -0.262 | 0.362 |
| DOCK4 | 0.0267 | 1.22 | 0.163 | 0.179 | -0.0565 |
| RNF38 | 0.466 | 1.33 | 0.15 | 0.54 | 0.494 |
| RUNX1 | 0.459 | 1.56 | 0.511 | 0.542 | 0.296 |
| QPCT | -0.764 | 2.2 | -0.806 | -0.712 | -0.633 |
| FEM1B | 0.0803 | 1.61 | 0.0228 | 0.0159 | 0.288 |
| ZDHHC1 | -0.446 | 4.08 | -0.475 | -0.629 | -0.619 |
| FADS1 | -0.0436 | 2.68 | -0.132 | -0.103 | -0.00109 |
